Among all 580,000 compounds or so, about 6,100 (1.1%) were called active. Inconclusive means that the source gave no clear call. Such entries were picked first, then a sample of the others. Calls follow the shape of the dose curve; as a rule, active = well fitted inhibition curve with a large enough effect; inconclusive = small, poorly fitted or top-dose-only effect, or another doubt; inactive = no such curve, though single readings can be large or run the other way. A potency beside an inconclusive call is a rough fit, not a confirmed value.
Target: Polyunsaturated fatty acid lipoxygenase ALOX12 (Homo sapiens) (UniProt P18054)
Assay: Primary qHTS assay for inhibitors of human arachidonate 12S-lipoxygenase (ALOX12): Round 2
Settings: purified 12hLO, xylenol orange hydroperoxide absorbance; activity change, negative = inhibition: at 108 µM (top of the series) unless noted
Method in brief: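 Purified human 12hLO (150 nM final) in 25 mM Hepes, 0.01% Triton X-100, pH 7.0 was preincubated 15 min at room temperature with compound. Then 40 uM arachidonic acid was added, 30 min. Hydroperoxide was read by Fe-XO absorbance ratio 573/405 nm.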
% is scaled to controls: 0 for no effect and ±100 for the full control effect; potency is read from the fitted curve at half-maximal effect.

Chains of the proteins cited; added tags and fusions are not shown. Lines headed by an entry give the natural chain unless they say otherwise; changes in a name come on top.
UniProt P18054: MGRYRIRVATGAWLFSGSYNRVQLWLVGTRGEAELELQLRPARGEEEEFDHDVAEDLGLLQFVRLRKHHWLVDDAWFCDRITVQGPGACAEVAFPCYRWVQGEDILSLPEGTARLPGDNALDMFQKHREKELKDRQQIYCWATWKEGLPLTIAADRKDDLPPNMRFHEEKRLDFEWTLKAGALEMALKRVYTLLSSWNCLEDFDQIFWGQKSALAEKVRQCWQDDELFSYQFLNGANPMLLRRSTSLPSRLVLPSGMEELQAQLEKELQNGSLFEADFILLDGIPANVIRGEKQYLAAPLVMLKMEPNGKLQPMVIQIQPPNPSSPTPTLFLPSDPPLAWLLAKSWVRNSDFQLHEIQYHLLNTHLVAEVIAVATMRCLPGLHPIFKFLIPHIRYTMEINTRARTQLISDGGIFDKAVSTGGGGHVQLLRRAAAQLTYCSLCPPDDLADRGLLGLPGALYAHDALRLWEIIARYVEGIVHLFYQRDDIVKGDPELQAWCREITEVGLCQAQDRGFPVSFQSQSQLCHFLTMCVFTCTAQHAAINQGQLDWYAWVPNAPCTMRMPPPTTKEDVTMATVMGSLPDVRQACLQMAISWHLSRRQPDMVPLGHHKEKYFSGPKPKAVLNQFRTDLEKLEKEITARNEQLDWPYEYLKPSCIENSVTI

Structure (SMILES) | activity change, negative = inhibition | Potency
Cc1nnc(NS(=O)(=O)c2ccc(N=Nc3ccc(N)nc3N)cc2)s1 | inactive: -28.4% | –
CCOC(=O)C1(Cc2ccc(Cl)cc2)CCN(C(C)Cc2ccc(O)c(OC)c2)CC1 (stereo not given) | – | inconclusive: 35.5 µM [inhibitor, partial curve, poor fit]
O=C1NC2(CCCCC2)C(=O)N1CCS(=O)(=O)Oc1ccccc1 | inactive: 0.232% | –
CC(C)C[C@H]1CN(CCCC[C@H]2CNC(=O)C(=O)N2Cc2ccccc2)C(=O)C(=O)N1CC1CCCCC1 | – | inconclusive: 35.5 µM [inhibitor, partial curve, poor fit]
COc1ccc2c(c1)C1NC(=S)N[C@@](C)(O2)C1C(=O)Nc1ccccc1 (stereo not given in full) | – | inconclusive: 44.7 µM [inhibitor, partial curve, poor fit]
NNC(=O)COc1ccc(-c2n[nH]c(C(F)(F)F)c2-c2ccc(Br)cc2)c(O)c1 | – | inconclusive: 100 µM [inhibitor, partial curve, poor fit]
O=C(NS(=O)(=O)c1ccccc1)c1ccccc1 | – | inconclusive: 14.1 µM [inhibitor, full curve, poor fit]
Cc1ccc(NC(=O)CN2CCCN(Cc3ccccc3Cl)S2(=O)=O)c(C)c1 | – | inconclusive: 112 µM [inhibitor, partial curve, poor fit]
S=c1[nH]nc(COc2ccccc2)n1/N=C/c1cccs1 | – | inconclusive: 89.1 µM [inhibitor, partial curve, poor fit]
OCCN(CCO)c1cc2c3ccccc3ccc2c2ccccc12 | – | inconclusive: 44.7 µM [inhibitor, partial curve, poor fit]
O=C(c1cnccn1)N1CCC(c2nc(C3CC3)no2)C1 (stereo not given) | – | inconclusive: 10 µM [inhibitor, partial curve]
CC(C)C(N)c1ccc2c(c1)OCCCO2 (stereo not given) | inactive: 12% | –
COc1ccc(S(=O)(=O)N(C)Cc2cnn(C)c2)cc1OC | inactive: 33.2% | –
COc1ccc(CNCCC(c2ccc(F)cc2)c2ccc(OC(C)C)cc2)cc1OC (stereo not given) | – | inconclusive: 100 µM [inhibitor, partial curve, poor fit]
Cc1cc(Cl)ccc1NC(=O)CN1C(=O)CSc2ccc(S(=O)(=O)N(C)C)cc21 | – | inconclusive: 126 µM [inhibitor, partial curve, poor fit]
COC(=O)c1cc2c(c3c4cc(F)ccc4n(S(=O)(=O)c4cccc(C)c4)c13)C(=O)N(Cc1ccco1)C2 | – | inconclusive: 50.1 µM [inhibitor, partial curve, poor fit]
COc1ccc(OC)c(NC(=O)C2=C(C)Nc3ncnn3C2c2cccs2)c1 (stereo not given) | inactive: -4.33% | –
Cc1ccc(N2C(=O)[C@@H]3C(c4cccnc4)=NO[C@@H]3C2=O)c(C)c1 | inactive: 223% | –
CCC(=O)c1ccc(OC)c(Cl)c1 | inactive: 0% | –
Cc1ccc(CCNC(=O)c2cc(-c3ccncc3)nc3ccccc23)cc1 | inactive: 5.03% | –
CCCN1CCC2(CCN(C(=O)OC)CC2)Oc2ccccc21 | – | inconclusive: 79.4 µM [inhibitor, partial curve]
COC(=O)c1cn([C@H]2CO[C@H]3[C@@H]2OC[C@H]3OC(=O)Nc2ccccc2)nn1 | inactive: -0.968% [at 176 µM] | –
COc1ccccc1N1CCN(C(c2ccc(C)cc2)c2nnnn2C(C)C)CC1 (stereo not given) | inactive: 33.5% | –

Structure (SMILES) | activity change, negative = inhibition | Potency
CCCCn1cnc2c1c(=O)n(CC(=O)Nc1cc(F)ccc1C)c(=O)n2CCCC | inactive: 1.6% | –
O=C(NCCc1ccccc1)c1ccccc1NC(=O)C1CC=CCC1C(=O)O (stereo not given) | inactive: 23.2% | –
Cc1cc(C)c(CN2CCC(n3nccc3NC(=O)CCOc3ccccc3)CC2)cc1C | inactive: -8.27% | –
COc1ccc(S(=O)(=O)NCCc2nnc3ccc(SCC(=O)Nc4ccc(C(F)(F)F)cc4)nn23)cc1 | – | inconclusive: 56.2 µM [inhibitor, partial curve, poor fit]
CCOc1cc(C(=O)Nc2cnccn2)cc(OCC)c1OCC | inactive: 1.68% | –
CSc1ccc(C2NC(=S)NC3=C2CCc2ccccc23)cc1 (stereo not given) | – | inconclusive: 8.91 µM [inhibitor, full curve, poor fit]
Cc1cccc(CSCCNC(=O)c2ccc(N(C)S(=O)(=O)c3ccccc3)cc2)c1 | – | inconclusive: 1.78 µM [inhibitor, full curve]
Cc1ccc(C)c(C(=O)/C=C\N(C)C)c1 | inactive: 27.8% | –
COc1cccc(/C=C/c2nc(C#N)c(N3CCCCC3)o2)c1 | inactive: 0% | –
CCCn1c(=N)c(C(=O)NCc2cccnc2)cc2c(=O)n3cc(C)ccc3nc21 | – | inconclusive: 50.1 µM [inhibitor, partial curve, poor fit]
O=C(Cc1ccc2ccccc2c1)Nc1cc(Cl)ccc1C(=O)O | – | inconclusive: 44.7 µM [inhibitor, partial curve, poor fit]
Cc1ccc(S(=O)(=O)N(C)C)cc1NC(=O)C(C)N(C)Cc1sccc1C (stereo not given) | inactive: -4.07% | –
CN(CC(=O)NC(=O)NC1CCCCC1)Cc1ccc2ccccc2c1 | inactive: 10.9% | –
Cc1cccc(CNc2nc(-c3cccc(NS(C)(=O)=O)c3)nc3ccccc23)c1 | – | inconclusive: 8.91 µM [inhibitor, full curve, poor fit]
O=S1(=O)[C@H]2C[C@@H]3C=C[C@@]2(CN1Cc1ccc(Cl)cc1)O3 | inactive: 1.52% | –
O=C(CN1CCSc2ccccc21)N1CCN(c2ccccc2)CC1 | – | inconclusive: 20 µM [inhibitor, full curve, poor fit]
Cc1ccc(CC(=O)NC2CCCCC2C)cc1 (stereo not given) | inactive: -3.56% | –
COc1ccc(NC(=O)CSc2nc(=O)n(CCN3CCOCC3)c3c2CCC3)c(OC)c1 | inactive: 1.07% | –
COc1cccc(CN(C)C(=O)c2ccc(OCC(=O)Nc3cccc(C(F)(F)F)c3)c(OC)c2)c1 | – | inconclusive: 11.2 µM [inhibitor, full curve, poor fit]
COc1cc(OC)c(NC(=S)Nc2cccc(C)c2)cc1Cl | – | inconclusive: 25.1 µM [inhibitor, full curve]
COc1ccc(C2(C)N(O)C(C)C(c3cccs3)=[N+]2[O-])cc1 (stereo not given) | inactive: -4.61% | –
Cc1ccccc1[C@H]1C[C@@H](O)[C@@H](O)[C@@H]1NC(=O)c1cccnc1Oc1ccccc1 | – | inconclusive: 25.1 µM [inhibitor, full curve]

3 entries already listed, sorted by heavy-atom count, smallest number first:
Structure (SMILES) | activity change, negative = inhibition | Potency
O=C(c1cnccn1)N1CCC(c2nc(C3CC3)no2)C1 (stereo not given) | – | inconclusive: 10 µM [inhibitor, partial curve]
O=C1NC2(CCCCC2)C(=O)N1CCS(=O)(=O)Oc1ccccc1 | inactive: 0.232% | –
O=C(NCCc1ccccc1)c1ccccc1NC(=O)C1CC=CCC1C(=O)O (stereo not given) | inactive: 23.2% | –

Source: PubChem BioAssay AID1671190 (National Center for Advancing Translational Sciences (NCATS), 2021)
